According to patent US20210086176A1, “Analyte Detection method” (The Board of Trustees of the Leland Stanford Junior …, priority 2017, published 2021):

Assay: ondansetron in DBS versus plasma, healthy adults and newborn babies
Type: in vivo, human

Compound: Cc1nccn1CC1CCc2c(c3ccccc3n2C)C1=O (centres unmarked) [ondansetron]
- slope of trend line, DBS versus plasma ondansetron concentration (babies): 1.47
- slope of trend line, DBS versus plasma ondansetron concentration (healthy adults): 0.71
